Test results from patent US20100285016A1 (Genentech, published 2010).
No constants are given. Whether binding was seen depends on the method and setting. Binding seen in cells or lysates may run through a third protein. Some binding calls cover weakened binding; strength is not graded here. Tags and fused reporters may be left off the sequences shown.

Target: T1, C-terminally FLAG-tagged GDNF (UniProt P39905)
T1 sequence (looked up): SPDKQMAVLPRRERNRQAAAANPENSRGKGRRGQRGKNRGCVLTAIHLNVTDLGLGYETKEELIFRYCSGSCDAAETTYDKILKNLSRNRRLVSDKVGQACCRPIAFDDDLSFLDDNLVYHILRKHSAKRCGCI
Assay: co-immunoprecipitation with protein-A beads from mixed conditioned media, anti-FLAG western blot

- binding: binds
B1: PRO34128-Fc fusion protein (Fc fusion, not shown: a dimerising Fc or GST)
chain: SQTNNCTYLREQCLRDANGCKHAWRVMEDACNDSDPGDPCKMRNSSYCNLSIQYLVESNFQFKECLCTDDFYCTVNKLLGKKCINKSDNVKEDKFKWNLTTRSHHGFKGMWSCLEVAEACVGDVVCNAQLASYLKACSANGNPCDLKQCQAAIRFFYQNIPFNIAQMLAFCDCAQSDIPCQQSKEALHSKTCAVNMVPPPTCLSVIRSCQNDELCRRHYRTFQSKCWQRVTRKCHEDENCISTLSKQDLTCSGSDDCKAAYIDILGTVLQVQCTCRTITQSEESLCKIFQHMLHRKSCFNYPTLSNVKGMALYTRKHANKITLTGFHSPFNGE
